# Source: PubChem BioAssay AID540256 (National Center for Advancing Translational Sciences (NCATS), 2011)
# Among all 300,000 compounds or so, about 3,700 (1.2%) were called active. The shares of active, inactive and inconclusive entries below differ from those in the screen. Calls come from the whole dose curve; tested in HEK293 cells. Potencies of inconclusive entries are doubtful fits and often do not repeat.
# Assay: qHTS for Inhibitors of binding or entry into cells for Lassa Virus; note: nearly all actives have a fitted effect of over 50% in size
# Details: Lassa virus pseudotype entry inhibition, cell reporter; series mostly up to 37.9 µM
# Potency is the fitted concentration of half-maximal effect.
row,SMILES,Potency
1,Cc1ccc(S(=O)Cc2ccc(C(=O)NC3CCCCCC3)o2)cc1 (stereo not given),"inconclusive: 17.8 µM [inhibitor, single point]"
2,CCOC(=O)CSc1nnc(Cn2nnc(-c3ccccc3)n2)n1C,inactive
3,COC(=O)c1ccc(/C=C/c2nc3ccccc3c(=O)[nH]2)cc1,"inconclusive: 2.82 µM [inhibitor, single point]"
4,CC(=O)Nc1ccccc1-c1nc2ccccc2n(CC(=O)Nc2ccc(C)c(Cl)c2)c1=O,"inconclusive: 35.5 µM [inhibitor, single point]"
5,Cc1cc(C)c2c(N)c(C(=O)c3ccc(Br)cc3)oc2n1,inactive
6,CCN1c2ccccc2NC2C1C(C(C)=O)C(=O)N2c1ccc(Cl)cc1 (stereo not given),"inconclusive: 2.31 µM [inhibitor, partial curve]"
7,Cc1oc(-c2ccccc2F)nc1CS(=O)(=O)CC(=O)N1CCN(c2ccc(Cl)cc2)CC1,"inconclusive: 35.5 µM [inhibitor, single point]"
8,Cc1ccc(-n2[nH]c(C)c(/C=N/Nc3ccc([N+](=O)[O-])cc3[N+](=O)[O-])c2=O)cc1C,"inconclusive: 35.5 µM [inhibitor, single point]"
9,CC(C)c1ccc(N(CC(=O)N2CCN(Cc3ccccc3)CC2)S(C)(=O)=O)cc1,"inconclusive: 7.08 µM [inhibitor, partial curve, poor fit]"
10,C/C(=N\Nc1nc(N2CCOCC2)nc(N2CCOCC2)n1)c1cccs1,inactive
11,NS(=O)(=O)c1ccc(NC(CNS(=O)(=O)c2ccccc2)c2ccccc2)cc1 (stereo not given),"inconclusive: 22.4 µM [inhibitor, single point]"
12,COc1ccc(N=Cc2ccccc2O)cc1,"inconclusive: 35.5 µM [inhibitor, single point]"
13,O=c1c(N2CCCCC2)coc2ccccc12,"inconclusive: 7.08 µM [activator, partial curve, poor fit]"
14,O=C(CSc1nnc2c(n1)[nH]c1ccc(S(=O)(=O)N3CCOCC3)cc12)Nc1ccc(F)c(F)c1,"inconclusive: 10 µM [inhibitor, partial curve, poor fit]"
15,CCOc1ccc(NC(=O)CSC2=Nc3ccccc3C3=NC(CC(=O)NCc4ccccc4OC)C(=O)N23)cc1 (stereo not given),"inconclusive: 3.16 µM [inhibitor, single point]"
16,O=C(c1ccc2c(c1)N(Cc1ccc(Cl)cc1)C(=O)c1ccccc1S2(=O)=O)N1CCC(Cc2ccccc2)CC1,"inconclusive: 7.08 µM [inhibitor, partial curve]"
17,O=S1(=O)N(Cc2ccccc2)CCCN1Cc1ccc(F)cc1Cl,inactive
18,Cc1nnc(SCc2cn3ccsc3n2)n(N)c1=O,inactive
19,Cc1ccc(C2N(c3ccc(Cl)cc3)C(=O)N3CCCN23)cc1 (stereo not given),inactive
20,CN(C)S(=O)(=O)c1ccc(C(=O)NCc2ccccc2)cc1,inactive
21,Cc1ccccc1NS(=O)(=O)c1ccc2c(c1)NC(=O)CCS2,"inconclusive: 5.62 µM [inhibitor, full curve, poor fit]"
22,O=C(NNC(=S)Nc1ccc(F)c(Cl)c1)c1ccccc1Br,inactive
23,Cc1cc(C)c(Cc2c(C)nc3c(C(=O)NCc4ccco4)cnn3c2C)c(C)c1,inactive
24,CC1Cc2cc(/C(O)=C3/C(=O)C(=O)N(CCN4CCOCC4)C3c3cccc(O)c3)ccc2O1 (stereo not given),inactive

# In another format: 2 of the compounds above.
row | SMILES | Potency
10 | C/C(=N\Nc1nc(N2CCOCC2)nc(N2CCOCC2)n1)c1cccs1 | inactive
22 | O=C(NNC(=S)Nc1ccc(F)c(Cl)c1)c1ccccc1Br | inactive

# The list goes on:

row,SMILES,Potency
1,Cc1ccc(NC(=S)NCc2ccccn2)cc1,inactive
2,CC1=CC(C)(C)NC(=O)N1c1ccc(C)cc1,"inconclusive: 11.2 µM [inhibitor, partial curve, poor fit]"
3,CC(C)(C)Nc1nc(C(N)=O)nc(N2CCOCC2)n1,inactive
4,Cc1ccc(OC(C)C(=O)Nc2ccc(C)c(S(=O)(=O)Nc3ccc(C)cc3C)c2)cc1 (stereo not given),active: 16.4 µM
5,O=S1(=O)C[C@H](N2CCC(Cc3ccccc3)CC2)[C@@H](COCc2ccccc2)N1,"inconclusive: 3.15 µM [inhibitor, full curve, poor fit]"
6,Cc1cccc(Cn2cc(C=O)c3ccccc32)c1,"inconclusive: 10 µM [inhibitor, partial curve, poor fit]"
7,O=c1c([N+](=O)[O-])c(NCCN2CCCCCC2)c2ccccc2n1-c1ccccc1,"inconclusive: 6.51 µM [inhibitor, single point]"
8,N#Cc1ccccc1Sc1ccccc1C(=O)OCC(N)=O,inactive
9,CCn1c(COc2cccc(C)c2)nc2ccccc21,"inconclusive: 5.62 µM [activator, single point]"
10,O=C(CSc1nnc2scc(-c3ccccc3)n12)Nc1nsc(-c2ccc(Cl)cc2)n1,inactive
11,CN(C)/C=C/C(=O)c1cccc(C(F)(F)F)c1,"inconclusive: 10 µM [inhibitor, partial curve, poor fit]"
12,CCN(C(=O)CCS(=O)(=O)c1ccc2c(c1)oc(=O)n2C)c1ccc(OC)cc1,"inconclusive: 7.94 µM [activator, partial curve, poor fit]"
13,COCCCN(C(C)=O)c1nc(-c2ccccc2)cs1,"inconclusive: 6.51 µM [inhibitor, full curve, poor fit]"
14,Clc1ccccc1C(c1nnnn1Cc1ccco1)N1CCN(Cc2ccco2)CC1 (stereo not given),inactive
15,O=C(NCc1nc(-c2ccccc2)no1)Nc1ccc(F)cc1,inactive
16,COc1ccccc1Oc1ccc2c(c1)C(=O)N(CC1CCCO1)C2=O (stereo not given),"inconclusive: 35.5 µM [inhibitor, single point]"
17,COc1ccc(CCN2C(=O)CC(NCc3ccc4c(c3)OCO4)C2=O)cc1OC (stereo not given),inactive
18,CC(=O)C(C(C)=O)C1(O)C(=O)c2ccccc2C1=O,"inconclusive: 0.184 µM [inhibitor, partial curve, poor fit]"
19,CCOC(=O)C1=C(N)Oc2ccc3ccccc3c2C1c1cccnc1 (stereo not given),inactive
20,Cc1cc(C)n(C(=O)c2c([N+](=O)[O-])cnn2C)n1,"inconclusive: 8.2 µM [inhibitor, partial curve, poor fit]"
21,N#Cc1c([N+](=O)[O-])cc([N+](=O)[O-])cc1S(=O)(=O)Cc1ccccc1,active: 11.2 µM
22,Fc1cccc(NC(=S)NCc2ccccn2)c1,inactive
23,CCC1CCCCN1CCCNC(=O)c1cn(CC)c2ccc(S(=O)(=O)N(C)C3CCCCC3)cc2c1=O (stereo not given),inactive
24,CC(C)(C)c1ccc(C(=O)Nc2ccc(C(=O)OCc3cc(=O)n4ccsc4n3)cc2)cc1,inactive

# Ordered by number of heavy atoms (high to low): some entries from above.
row,SMILES,Potency
9,CCn1c(COc2cccc(C)c2)nc2ccccc21,"inconclusive: 5.62 µM [activator, single point]"
6,Cc1cccc(Cn2cc(C=O)c3ccccc32)c1,"inconclusive: 10 µM [inhibitor, partial curve, poor fit]"
20,Cc1cc(C)n(C(=O)c2c([N+](=O)[O-])cnn2C)n1,"inconclusive: 8.2 µM [inhibitor, partial curve, poor fit]"

# Following part:

row,SMILES,Potency
2,CCc1ccc(NC(=O)C(C)Sc2nc(-c3ccco3)c(C#N)c(=O)[nH]2)cc1 (stereo not given),"inconclusive: 0.501 µM [inhibitor, full curve, poor fit]"
3,CN(C)c1cccc(C(=O)Nc2nc3ccc(S(=O)(=O)NC(C)(C)C)cc3s2)c1,"inconclusive: 4.47 µM [inhibitor, partial curve]"
4,CCCCC(=O)NC(c1ccc(Cl)cc1Cl)c1ccc2cccnc2c1O (stereo not given),active: 7.08 µM
5,O=C(O)c1cnn2c(C(F)(F)F)cc(-c3ccco3)nc12,inactive
6,O=C(c1ccccc1)c1ccc2nc(N3CCN(c4ccccc4)CC3)c3nncn3c2c1,"inconclusive: 6.31 µM [inhibitor, partial curve, poor fit]"
7,Cc1cc2c(cc1S(=O)(=O)NCc1ccccc1)OCC(=O)N2,inactive
8,Cc1ccc(S(=O)(=O)NCC2CCC(C(=O)NCc3cccs3)CC2)cc1 (stereo not given),inactive
9,COc1ccc(C(=O)CC(=O)C(=O)Nc2cccc([N+](=O)[O-])c2C)cc1,"inconclusive: 11.2 µM [inhibitor, partial curve, poor fit]"
10,CN(C)CC1CCC/C(=C\c2ccc(OC(=O)c3ccc(Cl)cc3)cc2)C1=O (stereo not given),"inconclusive: 0.501 µM [inhibitor, full curve, poor fit]"
11,O=C1/C(=C/c2ccc(N3CCCC3)cc2)NC(=S)N1C1CC1,"inconclusive: 7.3 µM [activator, partial curve, poor fit]"
12,CCSc1nnc(NC(=O)c2nc(S(=O)(=O)Cc3ccc(F)cc3)ncc2Cl)s1,"inconclusive: 31.6 µM [inhibitor, single point]"
13,CC1Cc2ccccc2N1CC(=O)Nc1ccc(N2CCOCC2)cc1 (stereo not given),inactive
14,O=C(c1ccc(Cl)cc1)c1c[nH]c(C(=O)C(Cl)(Cl)Cl)c1,"inconclusive: 2.82 µM [activator, partial curve, poor fit]"
15,C/C(=N\NC(=O)c1ccn(C)n1)c1ccco1,"inconclusive: 11.2 µM [inhibitor, partial curve]"
16,CCc1ccc(NC(=O)c2cc3c(COC(C)=O)cnc(C)c3oc2=O)cc1,inactive
17,CN(C)S(=O)(=O)c1ccc(C(=O)Nc2c(C(=O)Nc3ccc(F)cc3)oc3ccccc23)cc1,inactive
18,COc1ccc(CNS(=O)(=O)NCc2ccc(OC)c(OC)c2)cc1OC,"inconclusive: 22.4 µM [inhibitor, single point]"
19,CCOc1ccc(CN2CCCC(C(=O)c3ccccc3OC)C2)cc1 (stereo not given),"inconclusive: 0.562 µM [inhibitor, full curve, poor fit]"
20,Cc1cc(Cl)ccc1NC(=O)CN1CCC(C(O)(c2ccccc2)c2ccccc2)CC1,"inconclusive: 2.06 µM [activator, partial curve]"
21,COc1ccc(Nc2nc(Nc3ccc(OC)cc3OC)nc(N3CCN(C)CC3)n2)c(OC)c1,"inconclusive: 35.5 µM [inhibitor, single point]"
22,COc1ccc(NC(=O)Cc2ccc(-c3ccccc3)cc2)cn1,"inconclusive: 10 µM [inhibitor, partial curve, poor fit]"
